Series [1] can be described thus: general procedure: peptide synthesis; Fmoc-Leu-HMPB BHA resin. As to conditions: whole synthesis.
A further series is described as follows: peptide synthesis. As to conditions: TFA salt.

Five substances from patent US20070014721A1 (priority 2005, published 2007) can be followed below.

Consider Ac-PL-NLys(Boc)-L-OH, for which, in series [1], the isolated yield is 79%.

On to “N-[(2R)-2-({[4-((2S)-2-{(2S)-2-[2-((2S)-2-[((2S)-1-Acetylpyrrolidin-2-yl)carbonylamino]-N-{4-[(tert-butoxy)carbonylamino]butyl}-4-methylpentanoylamino)-acetylamino]-4-methylpentanoylamino}-4-methylpentanoylamino)phenyl]methoxy}-carbonylamino)-4-methylpentanoylamino]-6-aminohexanamide Trifluoroacetic Acid Salt”, for which, in the series “peptide synthesis” (late stage modification step), the “final HPLC purity” value is listed as “HPLC purity 100%” and the step yield came out at 90%.

As to “N-[(N-{1-[N-(1-{N-[(1R)-1-(N-{(1S)-3-Methyl-1-[N-(2-methylpropyl)carbamoyl]butyl}carbamoyl)-3-methylbutyl]carbamoyl}(1S)-4-(amidinoamino)butyl)carbamoyl](1S)-3-phenylpropyl}carbamoyl)methyl](2S)-2-[((2S)-1-acetylpyrrolidin-2-yl)carbonylamino]-4-methylpentanamide”, in the series “peptide synthesis” (coupling step), the step yield was determined as 58.9%. Take “N—[(N-{1-[N-(1-{N-[4-({N-[(1R)-1-(N-Aminocarbamoyl)-3-methylbutyl]carbamoyloxy}methyl)phenyl]carbamoyl}(1S)-3-methylbutyl)carbamoyl](1S)-3-phenylpropyl}carbamoyl)methyl](2S)-2-[((2S)-1-acetylpyrrolidin-2-yl)carbonylamino]”: in the series “peptide synthesis” (coupling step), the “final HPLC purity” value is given as “HPLC purity 100%” and the step yield was 38%. In the case of “N—[(N-{1-[N-(1-{N-[4-({N-[(1R)-1-(N-Aminocarbamoyl)-3-methylbutyl]carbamoyloxy}methyl)phenyl]carbamoyl}(1S)-4-[(imino{[(2,2,5,7,8-pentamethylchroman-6-yl)sulfonyl]amino}methyl)amino]butyl)carbamoyl](1S)-3-phenylpropyl}carbamoyl)methyl]”, in “peptide synthesis” (coupling step), the “final HPLC purity” value is on record as “HPLC purity 100%” and the step yield was 23%.
